Experiment [1] deals with Zonula occludens scaffold protein ZO1 (UniProt Q07157).
In experiment [2] the target is T1, Zonula occludens scaffold protein ZO1, Q07157.
T1 chain: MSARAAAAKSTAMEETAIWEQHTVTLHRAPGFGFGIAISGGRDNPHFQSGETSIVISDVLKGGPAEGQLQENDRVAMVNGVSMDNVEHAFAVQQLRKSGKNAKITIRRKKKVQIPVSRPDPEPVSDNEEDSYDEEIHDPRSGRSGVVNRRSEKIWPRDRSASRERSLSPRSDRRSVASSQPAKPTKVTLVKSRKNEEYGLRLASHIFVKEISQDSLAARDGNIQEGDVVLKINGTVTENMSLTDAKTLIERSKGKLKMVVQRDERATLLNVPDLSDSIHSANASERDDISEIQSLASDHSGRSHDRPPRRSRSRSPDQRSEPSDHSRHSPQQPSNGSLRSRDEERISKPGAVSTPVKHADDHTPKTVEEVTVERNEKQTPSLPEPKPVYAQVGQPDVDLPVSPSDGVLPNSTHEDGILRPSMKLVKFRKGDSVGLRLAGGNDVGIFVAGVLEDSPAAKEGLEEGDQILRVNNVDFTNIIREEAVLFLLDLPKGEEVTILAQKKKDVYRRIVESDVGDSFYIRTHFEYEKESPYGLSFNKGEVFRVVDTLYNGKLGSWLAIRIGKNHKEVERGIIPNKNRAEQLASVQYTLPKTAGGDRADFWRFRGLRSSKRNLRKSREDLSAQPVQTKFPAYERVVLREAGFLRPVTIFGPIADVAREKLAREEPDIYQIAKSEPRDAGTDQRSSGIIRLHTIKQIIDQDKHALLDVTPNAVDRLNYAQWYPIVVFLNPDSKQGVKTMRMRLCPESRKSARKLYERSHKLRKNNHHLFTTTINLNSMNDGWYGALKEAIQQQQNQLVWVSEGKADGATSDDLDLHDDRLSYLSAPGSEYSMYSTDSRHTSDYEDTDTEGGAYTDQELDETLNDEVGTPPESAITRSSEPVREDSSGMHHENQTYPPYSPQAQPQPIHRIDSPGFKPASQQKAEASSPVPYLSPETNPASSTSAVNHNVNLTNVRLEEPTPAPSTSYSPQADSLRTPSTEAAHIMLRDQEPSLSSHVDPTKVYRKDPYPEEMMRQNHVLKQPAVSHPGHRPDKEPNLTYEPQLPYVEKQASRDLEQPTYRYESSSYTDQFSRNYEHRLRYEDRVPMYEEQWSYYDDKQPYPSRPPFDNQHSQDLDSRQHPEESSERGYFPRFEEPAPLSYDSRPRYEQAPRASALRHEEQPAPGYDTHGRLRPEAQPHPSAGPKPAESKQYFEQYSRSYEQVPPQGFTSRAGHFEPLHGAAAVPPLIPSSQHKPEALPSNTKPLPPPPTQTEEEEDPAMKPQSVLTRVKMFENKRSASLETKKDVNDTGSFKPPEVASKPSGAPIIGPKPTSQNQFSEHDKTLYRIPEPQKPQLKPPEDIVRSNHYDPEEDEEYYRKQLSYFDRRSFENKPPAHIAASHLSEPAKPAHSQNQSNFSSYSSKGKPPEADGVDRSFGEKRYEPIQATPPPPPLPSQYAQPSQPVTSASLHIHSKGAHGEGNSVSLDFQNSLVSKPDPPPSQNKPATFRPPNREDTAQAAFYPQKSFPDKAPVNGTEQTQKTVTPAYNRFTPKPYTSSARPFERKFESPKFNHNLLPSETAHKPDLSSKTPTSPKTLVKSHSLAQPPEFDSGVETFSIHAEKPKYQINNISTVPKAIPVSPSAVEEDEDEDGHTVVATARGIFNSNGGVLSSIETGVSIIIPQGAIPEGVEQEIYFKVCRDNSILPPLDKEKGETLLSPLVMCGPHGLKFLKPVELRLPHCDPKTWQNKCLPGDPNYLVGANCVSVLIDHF
Particulars: remark: other sources report otherwise.

These are yes or no findings as the source states them, for the method shown. Some results given as binding are weak or reduced against the parent protein; the word gives no strength.

B1: ZO2 (protein, UniProt Q9UDY2 1-1190)
chain: MPVRGDRGFPPRRELSGWLRAPGMEELIWEQYTVTLQKDSKRGFGIAVSGGRDNPHFENGETSIVISDVLPGGPADGLLQENDRVVMVNGTPMEDVLHSFAVQQLRKSGKVAAIVVKRPRKVQVAALQASPPLDQDDRAFEVMDEFDGRSFRSGYSERSRLNSHGGRSRSWEDSPERGRPHERARSRERDLSRDRSRGRSLERGLDQDHARTRDRSRGRSLERGLDHDFGPSRDRDRDRSRGRSIDQDYERAYHRAYDPDYERAYSPEYRRGARHDARSRGPRSRSREHPHSRSPSPEPRGRPGPIGVLLMKSRANEEYGLRLGSQIFVKEMTRTGLATKDGNLHEGDIILKINGTVTENMSLTDARKLIEKSRGKLQLVVLRDSQQTLINIPSLNDSDSEIEDISEIESNRSFSPEERRHQYSDYDYHSSSEKLKERPSSREDTPSRLSRMGATPTPFKSTGDIAGTVVPETNKEPRYQEDPPAPQPKAAPRTFLRPSPEDEAIYGPNTKMVRFKKGDSVGLRLAGGNDVGIFVAGIQEGTSAEQEGLQEGDQILKVNTQDFRGLVREDAVLYLLEIPKGEMVTILAQSRADVYRDILACGRGDSFFIRSHFECEKETPQSLAFTRGEVFRVVDTLYDGKLGNWLAVRIGNELEKGLIPNKSRAEQMASVQNAQRDNAGDRADFWRMRGQRSGVKKNLRKSREDLTAVVSVSTKFPAYERVLLREAGFKRPVVLFGPIADIAMEKLANELPDWFQTAKTEPKDAGSEKSTGVVRLNTVRQIIEQDKHALLDVTPKAVDLLNYTQWFPIVIFFNPDSRQGVKTMRQRLNPTSNKSSRKLFDQANKLKKTCAHLFTATINLNSANDSWFGSLKDTIQHQQGEAVWVSEGKMEGMDDDPEDRMSYLTAMGADYLSCDSRLISDFEDTDGEGGAYTDNELDEPAEEPLVSSITRSSEPVQHEESIRKPSPEPRAQMRRAASSDQLRDNSPPPAFKPEPPKAKTQNKEESYDFSKSYEYKSNPSAVAGNETPGASTKGYPPPVAAKPTFGRSILKPSTPIPPQEGEEVGESSEEQDNAPKSVLGKVKIFEKMDHKARLQRMQELQEAQNARIEIAQKHPDIYAVPIKTHKPDPGTPQHTSSRPPEPQKAPSRPYQDTRGSYGSDAEEEEYRQQLSEHSKRGYYGQSARYRDTEL
Take B1: the binding entry in experiment [1] was “binds”.

B2: PAR3, Q8TEW0 1-1356 (protein)
chain: MKVTVCFGRTRVVVPCGDGHMKVFSLIQQAVTRYRKAIAKDPNYWIQVHRLEHGDGGILDLDDILCDVADDKDRLVAVFDEQDPHHGGDGTSASSTGTQSPEIFGSELGTNNVSAFQPYQATSEIEVTPSVLRANMPLHVRRSSDPALIGLSTSVSDSNFSSEEPSRKNPTRWSTTAGFLKQNTAGSPKTCDRKKDENYRSLPRDTSNWSNQFQRDNARSSLSASHPMVGKWLEKQEQDEDGTEEDNSRVEPVGHADTGLEHIPNFSLDDMVKLVEVPNDGGPLGIHVVPFSARGGRTLGLLVKRLEKGGKAEHENLFRENDCIVRINDGDLRNRRFEQAQHMFRQAMRTPIIWFHVVPAANKEQYEQLSQSEKNNYYSSRFSPDSQYIDNRSVNSAGLHTVQRAPRLNHPPEQIDSHSRLPHSAHPSGKPPSAPASAPQNVFSTTVSSGYNTKKIGKRLNIQLKKGTEGLGFSITSRDVTIGGSAPIYVKNILPRGAAIQDGRLKAGDRLIEVNGVDLVGKSQEEVVSLLRSTKMEGTVSLLVFRQEDAFHPRELNAEPSQMQIPKETKAEDEDIVLTPDGTREFLTFEVPLNDSGSAGLGVSVKGNRSKENHADLGIFVKSIINGGAASKDGRLRVNDQLIAVNGESLLGKTNQDAMETLRRSMSTEGNKRGMIQLIVARRISKCNELKSPGSPPGPELPIETALDDRERRISHSLYSGIEGLDESPSRNAALSRIMGESGKYQLSPTVNMPQDDTVIIEDDRLPVLPPHLSDQSSSSSHDDVGFVTADAGTWAKAAISDSADCSLSPDVDPVLAFQREGFGRQSMSEKRTKQFSDASQLDFVKTRKSKSMDLGIADETKLNTVDDQKAGSPSRDVGPSLGLKKSSSLESLQTAVAEVTLNGDIPFHRPRPRIIRGRGCNESFRAAIDKSYDKPAVDDDDEGMETLEEDTEESSRSGRESVSTASDQPSHSLERQMNGNQEKGDKTDRKKDKTGKEKKKDRDKEKDKMKAKKGMLKGLGDMFRFGKHRKDDKIEKTGKIKIQESFTSEEERIRMKQEQERIQAKTREFRERQARERDYAEIQDFHRTFGCDDELMYGGVSSYEGSMALNARPQSPREGHMMDALYAQVKKPRNSKPSPVDSNRSTPSNHDRIQRLRQEFQQAKQDEDVEDRRRTYSFEQPWPNARPATQSGRHSVSVEVQMQRQRQEERESSQQAQRQYSSLPRQSRKNASSVSQDSWEQNYSPGEGFQSAKENPRYSSYQGSRNGYLGGHGFNARVMLETQELLRQEQRRKEQQMKKQPPSEGPSNYDSYKKVQDPSYAPPKGPFRQDVPPSPSQVARLNRLQTPEKGRPFYS
For the molecule B2, the binding result in experiment [2] was “binds”.

B3: CGN (protein, UniProt Q9P2M7 1-1203)
chain: MEQAPNMAEPRGPVDHGVQIRFITEPVSGAEMGTLRRGGRRPAKDARASTYGVAVRVQGIAGQPFVVLNSGEKGGDSFGVQIKGANDQGASGALSSDLELPENPYSQVKGFPAPSQSSTSDEEPGAYWNGKLLRSHSQASLAGPGPVDPSNRSNSMLELAPKVASPGSTIDTAPLSSVDSLINKFDSQLGGQARGRTGRRTRMLPPEQRKRSKSLDSRLPRDTFEERERQSTNHWTSSTKYDNHVGTSKQPAQSQNLSPLSGFSRSRQTQDWVLQSFEEPRRSAQDPTMLQFKSTPDLLRDQQEAAPPGSVDHMKATIYGILREGSSESETSVRRKVSLVLEKMQPLVMVSSGSTKAVAGQGELTRKVEELQRKLDEEVKKRQKLEPSQVGLERQLEEKTEECSRLQELLERRKGEAQQSNKELQNMKRLLDQGEDLRHGLETQVMELQNKLKHVQGPEPAKEVLLKDLLETRELLEEVLEGKQRVEEQLRLRERELTALKGALKEEVASRDQEVEHVRQQYQRDTEQLRRSMQDATQDHAVLEAERQKMSALVRGLQRELEETSEETGHWQSMFQKNKEDLRATKQELLQLRMEKEEMEEELGEKIEVLQRELEQARASAGDTRQVEVLKKELLRTQEELKELQAERQSQEVAGRHRDRELEKQLAVLRVEADRGRELEEQNLQLQKTLQQLRQDCEEASKAKMVAEAEATVLGQRRAAVETTLRETQEENDEFRRRILGLEQQLKETRGLVDGGEAVEARLRDKLQRLEAEKQQLEEALNASQEEEGSLAAAKRALEARLEEAQRGLARLGQEQQTLNRALEEEGKQREVLRRGKAELEEQKRLLDRTVDRLNKELEKIGEDSKQALQQLQAQLEDYKEKARREVADAQRQAKDWASEAEKTSGGLSRLQDEIQRLRQALQASQAERDTARLDKELLAQRLQGLEQEAENKKRSQDDRARQLKGLEEKVSRLETELDEEKNTVELLTDRVNRGRDQVDQLRTELMQERSARQDLECDKISLERQNKDLKTRLASSEGFQKPSASLSQLESQNQLLQERLQAEEREKTVLQSTNRKLERKVKELSIQIEDERQHVNDQKDQLSLRVKALKRQVDEAEEEIERLDGLRKKAQREVEEQHEVNEQLQARIKSLEKDSWRKASRSAAESALKNEGLSSDEEFDSVYDPSSIASLLTESNLQTSSC
For B3, in experiment [1], the binding entry is reported as “binds”.

The values are drawn from article doi:10.1101/2023.06.24.546380.
